Repeats are few or missing, and single values can be far off.

Protein sequences, listed by entry. Tags and fused reporters are not part of them. Lines headed by an entry give the natural chain unless they say otherwise; changes in a name come on top.
UniProt P25685, whole entry: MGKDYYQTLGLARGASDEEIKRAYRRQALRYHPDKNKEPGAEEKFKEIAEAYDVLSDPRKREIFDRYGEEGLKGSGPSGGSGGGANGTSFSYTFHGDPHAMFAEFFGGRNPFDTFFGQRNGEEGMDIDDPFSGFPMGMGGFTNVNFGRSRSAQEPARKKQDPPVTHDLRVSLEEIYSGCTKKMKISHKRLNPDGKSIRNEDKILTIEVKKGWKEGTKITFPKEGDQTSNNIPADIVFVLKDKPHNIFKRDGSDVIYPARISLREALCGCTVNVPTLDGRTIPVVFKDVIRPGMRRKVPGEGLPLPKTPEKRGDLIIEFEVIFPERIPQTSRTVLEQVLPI
UniProt P17844: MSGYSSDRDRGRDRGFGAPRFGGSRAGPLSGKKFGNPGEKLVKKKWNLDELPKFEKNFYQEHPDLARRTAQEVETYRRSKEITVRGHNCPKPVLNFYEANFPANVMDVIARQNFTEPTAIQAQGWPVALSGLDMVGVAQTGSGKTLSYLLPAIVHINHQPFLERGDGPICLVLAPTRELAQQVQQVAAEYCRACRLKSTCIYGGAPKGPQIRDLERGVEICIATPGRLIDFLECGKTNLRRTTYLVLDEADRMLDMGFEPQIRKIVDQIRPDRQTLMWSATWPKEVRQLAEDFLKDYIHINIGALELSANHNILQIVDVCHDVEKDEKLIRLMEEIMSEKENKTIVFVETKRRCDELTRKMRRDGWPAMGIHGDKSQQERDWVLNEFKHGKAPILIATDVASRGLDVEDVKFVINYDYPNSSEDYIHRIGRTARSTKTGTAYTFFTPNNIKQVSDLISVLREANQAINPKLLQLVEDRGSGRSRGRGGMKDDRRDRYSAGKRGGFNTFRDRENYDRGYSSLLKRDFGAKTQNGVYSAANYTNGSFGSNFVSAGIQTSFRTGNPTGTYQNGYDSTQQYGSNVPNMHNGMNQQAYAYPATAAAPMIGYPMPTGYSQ
UniProt Q6GQQ9: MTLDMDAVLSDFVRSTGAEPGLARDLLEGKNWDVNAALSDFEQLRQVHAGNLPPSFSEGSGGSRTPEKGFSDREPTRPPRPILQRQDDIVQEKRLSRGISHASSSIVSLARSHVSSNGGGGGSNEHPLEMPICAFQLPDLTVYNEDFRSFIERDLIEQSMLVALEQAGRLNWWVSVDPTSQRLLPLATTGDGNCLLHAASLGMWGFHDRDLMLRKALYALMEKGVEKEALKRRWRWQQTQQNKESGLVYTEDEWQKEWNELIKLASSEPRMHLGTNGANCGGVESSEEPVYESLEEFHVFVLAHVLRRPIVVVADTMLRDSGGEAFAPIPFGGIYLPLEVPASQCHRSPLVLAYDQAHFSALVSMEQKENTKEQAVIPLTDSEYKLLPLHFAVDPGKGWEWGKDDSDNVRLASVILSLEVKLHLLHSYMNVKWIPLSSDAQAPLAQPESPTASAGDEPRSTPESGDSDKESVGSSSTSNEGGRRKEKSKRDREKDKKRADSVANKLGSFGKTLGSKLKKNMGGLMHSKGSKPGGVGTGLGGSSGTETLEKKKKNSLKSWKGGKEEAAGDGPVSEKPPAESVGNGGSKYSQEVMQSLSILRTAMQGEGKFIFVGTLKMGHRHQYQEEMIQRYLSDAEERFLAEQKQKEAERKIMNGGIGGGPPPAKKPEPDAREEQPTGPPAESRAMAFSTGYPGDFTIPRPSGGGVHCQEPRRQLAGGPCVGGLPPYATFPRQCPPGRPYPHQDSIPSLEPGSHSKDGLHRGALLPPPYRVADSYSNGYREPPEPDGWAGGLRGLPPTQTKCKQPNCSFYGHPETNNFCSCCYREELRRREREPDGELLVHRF
UniProt Q8WUA4: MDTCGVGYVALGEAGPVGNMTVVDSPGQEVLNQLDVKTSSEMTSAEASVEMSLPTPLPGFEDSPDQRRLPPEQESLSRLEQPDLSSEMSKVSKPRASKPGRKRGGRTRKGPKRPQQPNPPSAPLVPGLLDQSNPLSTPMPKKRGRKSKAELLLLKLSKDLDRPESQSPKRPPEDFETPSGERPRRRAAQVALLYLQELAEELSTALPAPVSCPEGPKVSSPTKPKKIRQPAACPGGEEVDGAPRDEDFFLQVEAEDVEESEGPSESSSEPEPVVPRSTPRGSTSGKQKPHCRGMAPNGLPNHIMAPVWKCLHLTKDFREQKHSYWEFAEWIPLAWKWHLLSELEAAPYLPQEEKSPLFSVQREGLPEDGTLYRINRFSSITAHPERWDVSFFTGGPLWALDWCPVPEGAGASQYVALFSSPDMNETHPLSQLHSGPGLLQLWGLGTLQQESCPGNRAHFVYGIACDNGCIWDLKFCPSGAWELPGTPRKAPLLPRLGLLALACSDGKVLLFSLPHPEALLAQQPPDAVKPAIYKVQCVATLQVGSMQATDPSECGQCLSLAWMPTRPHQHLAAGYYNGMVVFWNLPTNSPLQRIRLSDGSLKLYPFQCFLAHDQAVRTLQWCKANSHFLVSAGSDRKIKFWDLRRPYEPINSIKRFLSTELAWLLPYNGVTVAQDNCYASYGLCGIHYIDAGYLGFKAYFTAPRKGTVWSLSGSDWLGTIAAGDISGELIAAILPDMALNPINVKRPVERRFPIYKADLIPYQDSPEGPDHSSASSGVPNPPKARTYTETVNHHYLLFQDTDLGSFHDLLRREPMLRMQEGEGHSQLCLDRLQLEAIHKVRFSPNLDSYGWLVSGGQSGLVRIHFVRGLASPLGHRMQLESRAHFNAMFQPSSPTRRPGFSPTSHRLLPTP
UniProt Q9HBR0: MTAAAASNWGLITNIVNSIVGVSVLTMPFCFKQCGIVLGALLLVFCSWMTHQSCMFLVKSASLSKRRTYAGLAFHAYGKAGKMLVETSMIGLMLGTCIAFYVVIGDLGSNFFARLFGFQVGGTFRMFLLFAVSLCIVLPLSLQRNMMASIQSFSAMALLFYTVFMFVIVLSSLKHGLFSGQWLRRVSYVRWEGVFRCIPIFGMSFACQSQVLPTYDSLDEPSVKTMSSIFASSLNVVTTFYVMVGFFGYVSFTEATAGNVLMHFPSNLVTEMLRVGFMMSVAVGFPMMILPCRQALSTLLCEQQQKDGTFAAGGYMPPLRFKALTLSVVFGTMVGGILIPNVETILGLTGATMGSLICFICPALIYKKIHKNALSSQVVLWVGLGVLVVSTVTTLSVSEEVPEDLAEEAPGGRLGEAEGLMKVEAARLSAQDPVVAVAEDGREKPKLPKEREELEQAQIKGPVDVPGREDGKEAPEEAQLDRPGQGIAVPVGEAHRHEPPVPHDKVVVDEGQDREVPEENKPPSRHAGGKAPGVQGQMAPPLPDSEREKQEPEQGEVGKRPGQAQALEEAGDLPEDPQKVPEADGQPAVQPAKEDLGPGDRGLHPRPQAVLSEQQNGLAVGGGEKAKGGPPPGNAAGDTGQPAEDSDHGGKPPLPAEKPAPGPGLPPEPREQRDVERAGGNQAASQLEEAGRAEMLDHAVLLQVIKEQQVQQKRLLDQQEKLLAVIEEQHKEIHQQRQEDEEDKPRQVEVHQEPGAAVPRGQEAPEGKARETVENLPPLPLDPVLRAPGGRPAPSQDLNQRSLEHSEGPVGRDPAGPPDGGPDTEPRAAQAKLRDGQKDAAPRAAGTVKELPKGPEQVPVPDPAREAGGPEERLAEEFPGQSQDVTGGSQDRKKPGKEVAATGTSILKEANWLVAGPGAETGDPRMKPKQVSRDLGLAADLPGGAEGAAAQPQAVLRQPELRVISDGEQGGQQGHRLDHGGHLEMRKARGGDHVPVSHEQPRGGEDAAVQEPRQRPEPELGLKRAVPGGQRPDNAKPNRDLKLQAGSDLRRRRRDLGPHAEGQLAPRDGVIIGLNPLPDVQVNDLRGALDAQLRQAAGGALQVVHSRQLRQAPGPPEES
UniProt Q9NP77: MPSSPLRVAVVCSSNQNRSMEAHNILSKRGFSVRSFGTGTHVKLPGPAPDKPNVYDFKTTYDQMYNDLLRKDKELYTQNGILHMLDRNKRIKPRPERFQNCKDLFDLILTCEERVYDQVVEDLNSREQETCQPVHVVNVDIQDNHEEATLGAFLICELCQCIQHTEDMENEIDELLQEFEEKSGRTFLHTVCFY
UniProt Q01081: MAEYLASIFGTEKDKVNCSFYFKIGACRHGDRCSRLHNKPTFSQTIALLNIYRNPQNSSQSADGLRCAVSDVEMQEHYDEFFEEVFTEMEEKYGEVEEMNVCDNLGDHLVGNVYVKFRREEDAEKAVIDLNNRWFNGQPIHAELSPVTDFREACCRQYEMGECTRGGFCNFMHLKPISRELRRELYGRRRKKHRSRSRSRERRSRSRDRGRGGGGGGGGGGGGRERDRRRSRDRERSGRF
UniProt Q5XKP0: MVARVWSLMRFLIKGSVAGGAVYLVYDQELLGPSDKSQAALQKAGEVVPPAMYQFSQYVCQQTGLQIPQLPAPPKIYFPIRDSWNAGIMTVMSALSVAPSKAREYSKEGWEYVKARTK
UniProt P26640: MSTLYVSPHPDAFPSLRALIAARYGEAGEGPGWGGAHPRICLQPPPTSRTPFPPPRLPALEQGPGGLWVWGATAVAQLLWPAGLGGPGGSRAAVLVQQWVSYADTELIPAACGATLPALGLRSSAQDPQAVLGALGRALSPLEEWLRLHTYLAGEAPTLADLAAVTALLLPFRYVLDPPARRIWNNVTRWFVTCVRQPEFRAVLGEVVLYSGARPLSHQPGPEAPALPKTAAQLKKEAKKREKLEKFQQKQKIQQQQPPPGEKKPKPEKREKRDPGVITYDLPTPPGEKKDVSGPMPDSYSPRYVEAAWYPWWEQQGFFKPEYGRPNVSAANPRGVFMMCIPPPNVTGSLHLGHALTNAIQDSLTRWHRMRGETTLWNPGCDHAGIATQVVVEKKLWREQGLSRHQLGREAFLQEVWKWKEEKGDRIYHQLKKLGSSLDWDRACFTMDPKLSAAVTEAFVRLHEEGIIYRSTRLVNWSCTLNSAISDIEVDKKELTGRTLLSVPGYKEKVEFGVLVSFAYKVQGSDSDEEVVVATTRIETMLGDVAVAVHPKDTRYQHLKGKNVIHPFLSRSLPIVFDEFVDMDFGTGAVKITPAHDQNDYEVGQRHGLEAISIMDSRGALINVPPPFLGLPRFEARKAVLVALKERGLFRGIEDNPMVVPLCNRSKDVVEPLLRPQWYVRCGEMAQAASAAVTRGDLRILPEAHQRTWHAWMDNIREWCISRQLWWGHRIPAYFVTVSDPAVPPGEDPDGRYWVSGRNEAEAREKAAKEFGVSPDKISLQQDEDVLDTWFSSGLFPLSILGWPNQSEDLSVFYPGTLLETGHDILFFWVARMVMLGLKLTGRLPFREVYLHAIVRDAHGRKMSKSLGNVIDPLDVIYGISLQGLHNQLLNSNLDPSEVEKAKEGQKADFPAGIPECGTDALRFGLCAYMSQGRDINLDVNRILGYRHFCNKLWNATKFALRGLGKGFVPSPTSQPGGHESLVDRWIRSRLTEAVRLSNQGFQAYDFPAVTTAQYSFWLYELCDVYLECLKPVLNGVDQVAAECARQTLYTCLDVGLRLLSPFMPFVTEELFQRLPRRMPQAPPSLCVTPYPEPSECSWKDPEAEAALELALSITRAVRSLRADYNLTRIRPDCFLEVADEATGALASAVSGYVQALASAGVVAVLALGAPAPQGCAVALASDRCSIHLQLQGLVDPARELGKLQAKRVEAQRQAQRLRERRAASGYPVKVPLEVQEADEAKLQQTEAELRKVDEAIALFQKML
UniProt P63172, whole entry: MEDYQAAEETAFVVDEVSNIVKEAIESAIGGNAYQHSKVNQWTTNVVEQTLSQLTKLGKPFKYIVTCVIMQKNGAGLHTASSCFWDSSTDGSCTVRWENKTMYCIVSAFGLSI
UniProt P50552: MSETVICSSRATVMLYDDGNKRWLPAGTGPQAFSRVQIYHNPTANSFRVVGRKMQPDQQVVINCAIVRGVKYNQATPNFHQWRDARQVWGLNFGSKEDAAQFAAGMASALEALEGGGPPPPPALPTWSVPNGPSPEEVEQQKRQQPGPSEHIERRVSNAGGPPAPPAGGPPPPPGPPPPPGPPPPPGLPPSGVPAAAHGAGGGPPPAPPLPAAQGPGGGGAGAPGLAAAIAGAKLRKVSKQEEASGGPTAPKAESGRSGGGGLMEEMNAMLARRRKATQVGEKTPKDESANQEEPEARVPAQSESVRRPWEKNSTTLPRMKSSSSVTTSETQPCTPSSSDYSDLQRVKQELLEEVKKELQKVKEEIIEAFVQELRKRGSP
UniProt Q9Y6X5: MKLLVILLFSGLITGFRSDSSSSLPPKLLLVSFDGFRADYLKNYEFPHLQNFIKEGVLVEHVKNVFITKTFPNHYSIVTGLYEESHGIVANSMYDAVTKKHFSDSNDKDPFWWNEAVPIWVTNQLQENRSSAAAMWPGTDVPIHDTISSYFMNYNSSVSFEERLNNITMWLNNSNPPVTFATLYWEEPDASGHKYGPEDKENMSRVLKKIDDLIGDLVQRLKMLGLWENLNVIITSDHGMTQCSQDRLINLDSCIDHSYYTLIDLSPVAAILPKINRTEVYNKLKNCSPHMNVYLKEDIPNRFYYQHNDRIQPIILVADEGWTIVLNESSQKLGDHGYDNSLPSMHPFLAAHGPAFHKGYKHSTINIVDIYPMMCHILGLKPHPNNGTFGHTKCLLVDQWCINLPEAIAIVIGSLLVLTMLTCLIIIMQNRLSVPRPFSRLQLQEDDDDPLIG

Compound in the test: [O-][N+](C(C1=C(C(O)=C2)NC(C(C=C3)=CC=C3Cl)C4C1C=CC4)=C2Cl)=O
The test can be described thus: melting temperature shift (compound 7 minus DMSO); higher = compound stabilises the protein. The following applies: 10 µM. As for the experimental part: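 Thermal proteome profiling (TMT mass spectrometry) in intact DAOY medulloblastoma cells or DAOY lysates treated with 10 µM compound 7 or DMSO, heated at 10 temperatures from 40.5 to 73.8 °C for 3 min. Melting curves were fitted with the Bioconductor TPP package, and the melting point difference between compound and vehicle is reported per protein (single curve per condition).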

[1] abbreviates: system: DAOY cell lysate, treatment time: 20 min, 4 °C.
[2] abbreviates: system: intact DAOY cells, treatment time: 90 min, 37 °C.

Turning to NOP2 (UniProt P46087), the melting temperature shift was 1.17 °C under setting [1] and 1.54 °C under setting [2].
Regarding DNAJB1 (UniProt P25685), the melting temperature shift is -0.896 °C under setting [1] and -1.04 °C under setting [2].
Take PAICS (UniProt P22234): the melting temperature shift under setting [2] is -0.00669 °C.
For BCCIP (UniProt Q9P287), the melting temperature shift is -0.449 °C under setting [1] and 0.0192 °C under setting [2].
The matching figures for TRIM16 (UniProt O95361): -1.18 °C and 0.601 °C.
For MTMR6 (UniProt Q9Y217) the same measures were -0.243 °C and -0.315 °C.
The matching figures for TRAPPC6B (UniProt Q86SZ2): -0.349 °C and 1.31 °C.
As for DDX5 (UniProt P17844), the melting temperature shift is 0.609 °C under setting [1] and -0.175 °C under setting [2].
The matching figures for BID (UniProt P55957): 6.2 °C and -0.407 °C.
Regarding MANF (UniProt P55145), the melting temperature shift under setting [1] is -1.52 °C.
Turning to UniProt Q99504, the melting temperature shift by setting is: under setting [1], -0.597 °C; under setting [2], -1.22 °C.
Turning to NQO2 (UniProt P16083), under setting [1], the melting temperature shift is -0.815 °C.
As to CASC4 (UniProt Q6P4E1), the melting temperature shift under setting [1] was 0.406 °C.
For the target UniProt P20155, under setting [2], the melting temperature shift is -0.919 °C.
For the target C12ORF45 (UniProt Q8N5I9), under setting [1], the melting temperature shift is -0.849 °C.
For the target RRP9 (UniProt O43818), the melting temperature shift runs as follows: under setting [1], 1.45 °C; under setting [2], -0.236 °C.
Consider C15ORF40 (UniProt Q8WUR7), for which the melting temperature shift under setting [1] stood at 0.66 °C.
In the case of OTUD7B (UniProt Q6GQQ9), the melting temperature shift is -0.667 °C under setting [1] and -0.278 °C under setting [2].
For UniProt Q96PV6, under setting [1], the melting temperature shift was 1.64 °C.
Still for that read-out and setting: the value for WDR89 (UniProt Q96FK6) was -1.17 °C.
Same read-out and setting: the value for UniProt P43361 was 4.09 °C.
Regarding TUBB3 (UniProt Q13509), the melting temperature shift reads like this: under setting [1], 0.259 °C; under setting [2], 0.0751 °C.
For DICER1 (UniProt Q9UPY3) the same measures were -0.182 °C and -0.479 °C.
The matching figures for HOMER1 (UniProt Q86YM7): -0.277 °C and -0.0465 °C.
Turning to UGT8 (UniProt Q16880), under setting [1], the melting temperature shift is 1.1 °C.
On the same count and under the same terms, the value for GTF3C2 (UniProt Q8WUA4) was 6.41 °C.
For UniProt Q9BSW2, the melting temperature shift came out at 1.08 °C under setting [1] and 0.768 °C under setting [2].
Turning to SLC38A10 (UniProt Q9HBR0), the melting temperature shift is, setting by setting: under setting [1], -3.29 °C; under setting [2], -3.75 °C.
The matching figures for ARL6IP4 (UniProt Q66PJ3): 1.22 °C and -0.208 °C.
For AKR1B1 (UniProt P15121) the same measures were -0.496 °C and -0.0617 °C.
The matching figures for UniProt Q8WYQ5: 1.05 °C and 0.0414 °C.
For TBL2 (UniProt Q9Y4P3), the melting temperature shift under setting [1] was found to be 1.54 °C and the melting temperature shift under setting [2] was 0.0156 °C.
For CAND1 (UniProt Q86VP6) the same measures were -1.48 °C and -0.375 °C.
As to ITPRIP (UniProt Q8IWB1), the melting temperature shift under setting [1] was 1.87 °C.
For the target ATP6V1D (UniProt Q9Y5K8), the melting temperature shift under setting [1] was -1.42 °C and the melting temperature shift under setting [2] stood at 1.91 °C.
As to SSU72 (UniProt Q9NP77), the melting temperature shift under setting [1] is -1.05 °C and the melting temperature shift under setting [2] was found to be 0.867 °C.
For UniProt Q01081 the same measures were 1.78 °C and -1.08 °C.
For ARPC2 (UniProt O15144) the same measures were -1.31 °C and -0.345 °C.
On to PTRF (UniProt Q6NZI2), for which the melting temperature shift runs as follows: under setting [1], 1.6 °C; under setting [2], 1.23 °C.
With UniProt O95490, the melting temperature shift under setting [1] was 1.59 °C.
In the case of ACIN1 (UniProt Q9UKV3), the melting temperature shift is, setting by setting: under setting [1], 0.852 °C; under setting [2], 3.09 °C.
For UniProt Q5XKP0 the same measures were 0.721 °C and -2.05 °C.
For VARS (UniProt P26640) the same measures were -0.494 °C and -0.19 °C.
The matching figures for PARP1 (UniProt P09874): 0.482 °C and -0.874 °C.
Turning to GLTP (UniProt Q9NZD2), the melting temperature shift under setting [1] is -0.273 °C and the melting temperature shift under setting [2] was -0.162 °C.
The matching figures for MSH3 (UniProt P20585): -1.43 °C and 0.407 °C.
The matching figures for UniProt P30536: 0.38 °C and 1.67 °C.
For the target UniProt Q9BT88, the melting temperature shift under setting [2] came out at 1.39 °C.
Turning to BCAR1 (UniProt P56945), the melting temperature shift by setting is: under setting [1], -0.954 °C; under setting [2], 0.821 °C.
For TEX30 (UniProt Q5JUR7) the same measures were -1.2 °C and -3.23 °C.
The matching figures for TRMT61B (UniProt Q9BVS5): 1.19 °C and 4.86 °C.
PLRG1 (UniProt O43660): the melting temperature shift stood at 0.436 °C under setting [1] and 1.86 °C under setting [2].
On to UniProt Q96HH6, for which the melting temperature shift under setting [2] is -0.219 °C.
In the case of UniProt Q6STE5, the melting temperature shift runs as follows: under setting [1], -2.21 °C; under setting [2], -0.665 °C.
The matching figures for RDX (UniProt P35241): -0.93 °C and -0.659 °C.
Consider UniProt P63172, for which the melting temperature shift is, setting by setting: under setting [1], 0.358 °C; under setting [2], -0.577 °C.
For the target ABLIM1 (UniProt O14639), under setting [2], the melting temperature shift was -1.44 °C.
Turning to VASP (UniProt P50552), the melting temperature shift under setting [1] is -0.0492 °C and the melting temperature shift under setting [2] is -0.706 °C.
The matching figures for UniProt Q15773: 1 °C and 0.703 °C.
For FNTA (UniProt P49354) the same measures were 0.00424 °C and -0.0515 °C.
For UniProt Q9Y6X5, the melting temperature shift under setting [1] was determined as 2.05 °C.
With ERLIN2 (UniProt O94905), the melting temperature shift reads like this: under setting [1], 1.61 °C; under setting [2], 0.115 °C.
The matching figures for SMC1A (UniProt Q14683): 0.494 °C and -0.643 °C.
Take SEC23B (UniProt Q15437): the melting temperature shift is -0.229 °C under setting [1] and -0.531 °C under setting [2].
The matching figures for NUP62 (UniProt P37198): 0.0977 °C and 1.7 °C.
Take PTP4A1 (UniProt Q93096): under setting [2], the melting temperature shift was -2.1 °C.
Still for that read-out and setting: under UniProt Q9UJA3 stands -0.773 °C.

(Values after the supplement of paper PMC10060354, “Discovery of a small molecule ligand of FRS2 that inhibits invasion and tumor growth” (Cellular Oncology, 2022).)
